Experimental data reported in the supplement of paper PMC6418307.
Single values of this set are uncertain.

Tested on: primary mouse cortical neurons
Test: cell health score (luciferase spike-in reads / total reads per well) (fraction); higher = fewer cellular reads, worse cell health / toxicity
Settings: treatment time 24 h
[1] = 0.01 µM, sex of neuron culture: Female
[2] = 0.01 µM, sex of neuron culture: Male
[3] = 0.1 µM, sex of neuron culture: Female
[4] = 0.1 µM, sex of neuron culture: Male
[5] = 1 µM, sex of neuron culture: Female
[6] = 1 µM, sex of neuron culture: Male
[7] = 10 µM, sex of neuron culture: Female
[8] = 10 µM, sex of neuron culture: Male

SMILES	cell health score [1]	cell health score [2]	cell health score [3]	cell health score [4]	cell health score [5]	cell health score [6]	cell health score [7]	cell health score [8]
CC1(C)CON(Cc2ccccc2Cl)C1=O [Clomazone]	0.000964	0.00098	0.000687	0.000733	0.000779	0.00082	0.000888	0.000372
CC(Oc1cccc(Cl)c1)C(=O)O (configuration not stated) [Cloprop]	0.000593	0.000741	0.000871	0.000692	0.000668	0.000707	0.000786	0.000418
O=C(O)c1nc(Cl)ccc1Cl [Clopyralid-olamine]	0.000762	0.000937	0.00159	0.00083	0.000564	0.000512	0.00119	0.000501
O=C(O)c1nc(Cl)ccc1Cl [Clopyralid]	0.000511	0.00104	0.00197	0.000731	0.000739	0.00066	0.00117	0.00069
Oc1ccc(Cl)cc1Cc1ccccc1 [Clorophene]	0.000554	0.000765	0.000707	0.000864	0.000722	0.000594	0.00102	0.00084
CN/C(=N\[N+](=O)[O-])NCc1cnc(Cl)s1 [Clothianidin]	0.00144	0.000882	0.00118	0.000751	0.00107	0.000999	0.00101	0.000576
CCOP(=S)(OCC)Oc1ccc2c(C)c(Cl)c(=O)oc2c1 [Coumaphos]	0.000737	0.000584	0.00182	0.000927	0.000858	0.000474	0.00128	0.000559
COc1cc(/C=C/C(=O)CC(=O)/C=C/c2ccc(O)c(OC)c2)ccc1O [Curcumin]	0.000432	0.000598	0.00112	0.000837	0.00128	0.00134	0.00104	0.00154
N#CN [Cyanamide]	0.000639	0.00074	0.00126	0.000939	0.000709	0.000633	0.000866	0.000906
CCNc1nc(Cl)nc(NC(C)(C)C#N)n1 [Cyanazine]	0.000606	0.00061	0.000878	0.000781	0.00106	0.000597	0.00137	0.000492
Cc1ccc(-c2c(Cl)nc(C#N)n2S(=O)(=O)N(C)C)cc1 [Cyazofamid]	0.000573	0.000682	0.000838	0.000676	0.000982	0.000801	0.000929	0.000689
O=C(O)C1(C(=O)Nc2ccc(Cl)cc2Cl)CC1 [Cyclanilide]	0.00059	0.000719	0.000997	0.000781	0.000666	0.00123	0.00131	0.00137
CCSC(=O)N(CC)C1CCCCC1 [Cycloate]	0.000649	0.000901	0.000782	0.000825	0.00096	0.000529	0.00147	0.000497
CC1(C)C(C=C(Cl)Cl)C1C(=O)OC(C#N)c1ccc(F)c(Oc2ccccc2)c1 (configuration not stated) [Cyfluthrin]	0.000457	0.000833	0.000792	0.00118	0.00116	0.000545	0.000822	0.000467
CCCCOC(=O)[C@H](C)Oc1ccc(Oc2ccc(C#N)cc2F)cc1 [Cyhalofop-butyl]	0.000658	0.000836	0.00149	0.000873	0.00118	0.000653	0.00112	0.000943
CCNC(=O)NC(=O)/C(C#N)=N/OC [Cymoxanil]	0.000649	0.000732	0.00086	0.000834	0.000903	0.000683	0.00112	0.000655
CC1(C)C(C=C(Cl)Cl)C1C(=O)OC(C#N)c1cccc(Oc2ccccc2)c1 (configuration not stated) [Cypermethrin]	0.000626	0.00118	0.000728	0.000922	0.001	0.000841	0.000722	0.00145
CC(C1CC1)C(O)(Cn1cncn1)c1ccc(Cl)cc1 (configuration not stated) [Cyproconazole]	0.00104	0.000749	0.0021	0.000756	0.000843	0.000675	0.00101	0.00074
Cc1cc(C2CC2)nc(Nc2ccccc2)n1 [Cyprodinil]	0.000665	0.00082	0.00103	0.000821	0.00122	0.000764	0.00103	0.000845
Nc1nc(N)nc(NC2CC2)n1 [Cyromazine]	0.000621	0.000907	0.000901	0.00107	0.000945	0.000601	0.00127	0.00158
CCN(CC)C(=O)c1cccc(C)c1 [DEET]	0.00052	0.000833	0.000817	0.000696	0.000686	0.000753	0.00113	0.00124
O=[N+]([O-])c1cc2nc(O)c(O)nc2cc1[N+](=O)[O-] [DNQX]	0.000552	0.000753	0.00135	0.000937	0.00113	0.000404	0.00124	0.00332
CN(C)NC(=O)CCC(=O)O [Daminozide]	0.000641	0.000743	0.00135	0.00267	0.000996	0.000568	0.0013	0.000496
CN1CSC(=S)N(C)C1 [Dazomet]	0.000505	0.000751	0.000722	0.000735	0.00103	0.000572	0.00113	0.000937
CCNc1nc(N)nc(Cl)n1 [Deisopropylatrazine]	0.000617	0.00117	0.000658	0.000693	0.000656	0.000856	0.000697	0.000561
CCOP(=S)(OCC)Oc1cc(C)nc(C(C)C)n1 [Diazinon]	0.000543	0.000578	0.00072	0.000592	0.00116	0.000479	0.00133	0.000575
CCOP(=O)(OCC)Oc1cc(C)nc(C(C)C)n1 [Diazoxon]	0.000701	0.000691	0.000898	0.00118	0.000964	0.000855	0.00128	0.000799
CCCCOC(=O)c1ccccc1C(=O)OCCCC [Dibutyl phthalate]	0.000485	0.000647	0.000628	0.00104	0.00117	0.000464	0.000919	0.000535
COc1c(Cl)ccc(Cl)c1C(=O)O [Dicamba]	0.00039	0.000752	0.000852	0.000732	0.000922	0.000363	0.00136	0.00121

Single records, from the list above:
CCSC(=O)N(CC)C1CCCCC1 [Cycloate] is listed with cell health score [1]: 0.000649; cell health score [2]: 0.000901; cell health score [3]: 0.000782; cell health score [4]: 0.000825; cell health score [5]: 0.00096; cell health score [6]: 0.000529; cell health score [7]: 0.00147; cell health score [8]: 0.000497
Oc1ccc(Cl)cc1Cc1ccccc1 [Clorophene] is listed with cell health score [1]: 0.000554; cell health score [2]: 0.000765; cell health score [3]: 0.000707; cell health score [4]: 0.000864; cell health score [5]: 0.000722; cell health score [6]: 0.000594; cell health score [7]: 0.00102; cell health score [8]: 0.00084
